Laboratory results taken from paper PMC4811448.

Chains of the proteins cited; added tags and fusions are not shown. Lines headed by an entry give the natural chain unless they say otherwise; changes in a name come on top.
UniProt Q04771: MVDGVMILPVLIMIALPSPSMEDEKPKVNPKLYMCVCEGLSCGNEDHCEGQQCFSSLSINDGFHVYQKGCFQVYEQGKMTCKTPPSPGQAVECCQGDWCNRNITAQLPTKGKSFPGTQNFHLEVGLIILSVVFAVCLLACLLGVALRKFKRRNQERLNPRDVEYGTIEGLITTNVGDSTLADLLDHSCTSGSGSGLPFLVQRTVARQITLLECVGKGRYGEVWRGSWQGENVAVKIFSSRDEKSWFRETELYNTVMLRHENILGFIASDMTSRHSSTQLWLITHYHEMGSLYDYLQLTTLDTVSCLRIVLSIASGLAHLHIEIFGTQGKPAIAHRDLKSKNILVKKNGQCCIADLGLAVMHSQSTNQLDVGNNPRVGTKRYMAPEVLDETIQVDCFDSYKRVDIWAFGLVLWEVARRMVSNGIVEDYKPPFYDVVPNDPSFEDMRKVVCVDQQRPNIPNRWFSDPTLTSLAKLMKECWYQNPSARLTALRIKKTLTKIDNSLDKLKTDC

Target: kinase-dead human ACVR1/ALK2, HA-tagged (adenovirally expressed) (human) (UniProt Q04771)
Experiment: proximity ligation; C2C12 cells transduced with adenoviruses, fixed and permeabilised; rabbit anti-HA and mouse anti-LKB1 antibodies, Duolink reagents

B1: endogenous mouse Lkb1 (C2C12) (enzyme, UniProt Q9WTK7 1-436)
chain: MDVADPEPLGLFSEGELMSVGMDTFIHRIDSTEVIYQPRRKRAKLIGKYLMGDLLGEGSYGKVKEVLDSETLCRRAVKILKKKKLRRIPNGEANVKKEIQLLRRLRHRNVIQLVDVLYNEEKQKMYMVMEYCVCGMQEMLDSVPEKRFPVCQAHGYFRQLIDGLEYLHSQGIVHKDIKPGNLLLTTNGTLKISDLGVAEALHPFAVDDTCRTSQGSPAFQPPEIANGLDTFSGFKVDIWSAGVTLYNITTGLYPFEGDNIYKLFENIGRGDFTIPCDCGPPLSDLLRGMLEYEPAKRFSIRQIRQHSWFRKKHPLAEALVPIPPSPDTKDRWRSMTVVPYLEDLHGRAEEEEEEDLFDIEDGIIYTQDFTVPGQVLEEEVGQNGQSHSLPKAVCVNGTEPQLSSKVKPEGRPGTANPARKVCSSNKIRRLSACKQQ
In the case of B1, the binding is reported as “binds”.

These are yes or no findings as the source states them, for the method shown. Binding seen in cells or lysates may run through a third protein. Binding calls can cover weak binding; strength is not graded here.
